PubChem BioAssay AID504793, Drosophila RNAi Screening Center – 2011

Aim: 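Whole-genome screen for parts of the DNA damage checkpoint at G2/M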 (primary screen)
Cells: Drosophila S2R+ cells
Knock-down reagent: long dsRNA against Drosophila genes, about 0.25 µg dsRNA per well
Timing: 4 days of dsRNA, then 4 hours of drug before read-out
Conditions: doxorubicin 0.5 µM for 4 hours to cause double-strand breaks, in cells also given a low, harmless dose of dsRNA against nbs to sensitise the assay
Detection: 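Per-well count of mitotic cells stained for phospho-histone H3 after doxorubicin exposure, used as mitotic index; counts are raw and not normalised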
Scale: mitotic cells: higher = more cells in mitosis, weaker G2 arrest
Hit rule: 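Genes are called active only when high mitotic counts were reproduced with independent dsRNAs and mitosis was checked for delay without damage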
Meaning of the calls: active = confirmed in follow-up tests; inactive = not confirmed
The deposit covers about 23,000 reagents; this is an unselected part of those with a known target gene and a result. Over the whole deposit, 62 (0.27%) were called active. 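Calls come from follow-up tests whose scores are not deposited, so confirmed genes may have low counts here; counts are not normalised per plate.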 Raw values vary from plate to plate and are shown uncorrected. Reagent sequences are not shown.

no.	gene	dsRNA	mitotic cells, replicate 1	mitotic cells, replicate 2	call
1	CG3040	DRSC22486	9		inactive
2	lectin-21Ca	DRSC00541	6		inactive
3	CG6928	DRSC10749	4		inactive
4	CG10029	DRSC12498	3		inactive
5	CG32188	DRSC09510	16		inactive
6	Hsepi	DRSC04986	5		inactive
7	Hsepi	DRSC26089	8		inactive
8	Spn75F	DRSC09589	5		inactive
9	Mgat4b	DRSC10256	6		inactive
10	Mgat4b	DRSC29839	10		inactive
11	MED7	DRSC16059	9		inactive
12	MED7	DRSC29232	21		inactive
13	Appl	DRSC17728	5		inactive
14	Appl	DRSC27476	9		inactive
15	Zip89B	DRSC16128	6		inactive
16	Zip89B	DRSC29691	3		inactive
17	WRNexo	DRSC16278	7		inactive
18	Gmppb	DRSC12169	5		inactive
19	C1GalTA	DRSC03246	3		inactive
20	CG13739	DRSC23200	10		inactive
21	CG13739	DRSC28741	3		inactive
22	CG30033	DRSC24832	9		inactive
23	EloC	DRSC07423	2		inactive
24	EloC	DRSC29393	1		inactive
25	GstZ2	DRSC16479	3		inactive
26	CG17168	DRSC20904	5		inactive
27	CG17168	DRSC29872	5		inactive
28	CG32720	DRSC17529	8		inactive
29	Cyp312a1	DRSC11128	3		inactive
30	Cyp312a1	DRSC24814	3		inactive
31	Sec23	DRSC12387	5		inactive
32	RapGAP1	DRSC02293	5	12	inactive
33	RapGAP1	DRSC02294	4		inactive
34	RapGAP1	DRSC03406	4		inactive
35	RapGAP1	DRSC28628	6		inactive
36	RapGAP1	DRSC29428	4		inactive
37	tobi	DRSC14435	10		inactive
38	Gs1	DRSC00753	6		inactive
39	Gs1	DRSC28916	5		inactive
40	sub	DRSC06125	6		inactive
41	Gmap	DRSC19988	15		inactive
42	Gmap	DRSC20057	10		inactive
43	Gmap	DRSC29334	5		inactive
44	Cpn	DRSC16613	6		inactive
45	Cpn	DRSC23835	4		inactive
46	CG11168	DRSC14292	13		inactive
47	chinmo	DRSC00485	3		inactive
48	chinmo	DRSC00509	4		inactive
49	chinmo	DRSC22413	14		inactive
50	chinmo	DRSC28547	1		inactive
51	CG30369	DRSC21996	8		inactive
52	CG30369	DRSC29843	3		inactive
53	tsl	DRSC17090	13		inactive
54	eg	DRSC11885	5		inactive
55	eg	DRSC26147	4		inactive
56	CG10863	DRSC08145	4		inactive
57	cry	DRSC16928	5		inactive
58	CG11581	DRSC19407	9		inactive
59	Hacd2	DRSC03181	8		inactive
60	CG14285	DRSC14766	9		inactive
61	ca	DRSC15305	4		inactive
62	ca	DRSC15306	8		inactive
63	ca	DRSC16314	11		inactive
64	CG5727	DRSC02882			inactive
65	CG5727	DRSC29537	6		inactive
66	CG11593	DRSC08206	9		inactive
67	Nup35	DRSC19999	1		inactive
68	lds	DRSC16988	2		inactive
69	galectin	DRSC00305	5		inactive
70	Spn28F	DRSC03615	11		inactive
71	Spn28F	DRSC25759	11		inactive
72	Rpt2	DRSC16799	73		inactive
73	Rpt2	DRSC25012	46		inactive
74	CG15480	DRSC02490	2		inactive
75	CG15480	DRSC24919	6		inactive
76	side-V	DRSC04189	15		inactive
77	Prx6a	DRSC00565	5		inactive
78	CG30376	DRSC05086	5		inactive
79	CG32104	DRSC10127	5		inactive
80	CG32104	DRSC10128	6		inactive
81	CG12853	DRSC06193	5		inactive
82	CG12853	DRSC27193	11		inactive
83	l(2)k09848	DRSC04894	3		inactive
84	CG13791 (retired record)	DRSC02295	4		inactive
85	Cwc25	DRSC26038	5		inactive
86	SF2	DRSC16845	22		active
87	CG3860	DRSC04425	7		inactive
88	gish	DRSC16154	7		inactive
89	CG15172	DRSC02473	2		inactive
90	CG15172	DRSC27372	6		inactive
91	Vha36-2	DRSC06294	2		inactive
92	Vha36-2	DRSC29238	3		inactive
93	jumu	DRSC16651	5		inactive
94	CG5174	DRSC06920	6		inactive
95	CG5174	DRSC28048	7		inactive
96	CG13983	DRSC02315	6		inactive
97	CG13983	DRSC28917	7		inactive
98	Tep5Psi	DRSC02183	5		inactive
99	Tep5Psi	DRSC02184	3		inactive
100	Tbcb	DRSC06067	10		inactive
101	boly	DRSC21629	12		inactive
102	CG5435	DRSC02860	5		inactive
103	CG34284	DRSC14773	14		inactive
104	CG10713	DRSC09786	5		inactive
105	CG10713	DRSC24532	6		inactive
106	Cdk4	DRSC07358	6		inactive
107	Cdk4	DRSC27263	4		inactive
108	CG12576	DRSC20621	8		inactive
109	CG12576	DRSC26254	9		inactive
110	CG11737	DRSC14364	3		inactive
